Results reported in PubChem BioAssay (EPA / NIEHS).
“And” between values parts separate entries of the source, which are not always exact repeats. Equal values may be shown once. The inconclusive results got no clear call from the source; some entries with a clear call stand among them for comparison. For some assays here: A potency beside an inconclusive call is a rough fit, not a confirmed value. The source made the active and inactive calls. Rule for the calls: active = hit-call score of the fitted dose curve at least 0.9, where 1 is the maximum; inconclusive = response in the unintended direction; inactive = score below 0.9.

Chains of the proteins cited; added tags and fusions are not shown. Lines headed by an entry give the natural chain unless they say otherwise; changes in a name come on top.
UniProt P16257, whole entry, looked up: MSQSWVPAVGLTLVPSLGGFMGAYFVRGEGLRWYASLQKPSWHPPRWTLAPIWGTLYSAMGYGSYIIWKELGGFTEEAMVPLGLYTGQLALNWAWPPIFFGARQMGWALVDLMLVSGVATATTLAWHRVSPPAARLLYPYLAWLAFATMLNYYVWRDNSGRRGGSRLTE
UniProt P03372, whole entry, looked up: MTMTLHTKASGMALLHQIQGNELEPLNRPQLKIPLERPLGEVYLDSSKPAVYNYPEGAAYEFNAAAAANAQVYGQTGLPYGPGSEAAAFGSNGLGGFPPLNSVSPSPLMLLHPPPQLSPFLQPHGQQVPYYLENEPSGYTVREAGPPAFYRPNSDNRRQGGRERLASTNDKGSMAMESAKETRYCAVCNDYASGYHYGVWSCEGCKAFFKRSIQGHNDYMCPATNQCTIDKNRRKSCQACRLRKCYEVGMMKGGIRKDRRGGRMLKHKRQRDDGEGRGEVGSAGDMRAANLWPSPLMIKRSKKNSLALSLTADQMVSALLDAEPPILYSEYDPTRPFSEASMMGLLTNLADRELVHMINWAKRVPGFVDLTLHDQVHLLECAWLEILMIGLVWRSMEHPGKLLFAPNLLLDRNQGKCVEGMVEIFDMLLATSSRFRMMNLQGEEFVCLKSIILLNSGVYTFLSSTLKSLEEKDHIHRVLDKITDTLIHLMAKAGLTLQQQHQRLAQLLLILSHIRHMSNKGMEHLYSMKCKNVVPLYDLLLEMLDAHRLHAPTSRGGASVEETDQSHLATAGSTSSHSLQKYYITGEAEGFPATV
UniProt Q92731, whole entry, looked up: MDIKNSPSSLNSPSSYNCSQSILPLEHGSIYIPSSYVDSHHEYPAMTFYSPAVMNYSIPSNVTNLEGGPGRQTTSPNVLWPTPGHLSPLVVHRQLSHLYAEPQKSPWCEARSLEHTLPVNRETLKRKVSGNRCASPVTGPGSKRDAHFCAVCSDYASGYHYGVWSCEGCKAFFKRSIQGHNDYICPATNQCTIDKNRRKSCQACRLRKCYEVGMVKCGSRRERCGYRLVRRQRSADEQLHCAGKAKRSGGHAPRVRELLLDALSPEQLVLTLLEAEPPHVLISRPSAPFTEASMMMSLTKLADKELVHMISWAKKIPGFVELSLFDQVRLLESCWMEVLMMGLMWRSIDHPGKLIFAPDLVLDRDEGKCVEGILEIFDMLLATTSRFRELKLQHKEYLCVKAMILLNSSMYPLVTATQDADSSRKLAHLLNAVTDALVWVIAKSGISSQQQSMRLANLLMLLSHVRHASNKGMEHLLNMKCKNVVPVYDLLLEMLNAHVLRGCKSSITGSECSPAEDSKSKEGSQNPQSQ
UniProt Q14994: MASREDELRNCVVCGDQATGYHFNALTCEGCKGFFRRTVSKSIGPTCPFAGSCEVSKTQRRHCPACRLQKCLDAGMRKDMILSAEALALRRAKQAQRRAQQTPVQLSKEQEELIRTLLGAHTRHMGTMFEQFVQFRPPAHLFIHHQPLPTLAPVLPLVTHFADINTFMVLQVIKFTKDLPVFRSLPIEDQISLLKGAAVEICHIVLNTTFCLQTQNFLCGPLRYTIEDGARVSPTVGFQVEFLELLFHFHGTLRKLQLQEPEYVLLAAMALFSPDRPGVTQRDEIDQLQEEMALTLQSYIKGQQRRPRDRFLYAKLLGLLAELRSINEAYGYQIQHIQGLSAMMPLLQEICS
UniProt P49884, whole entry, looked up: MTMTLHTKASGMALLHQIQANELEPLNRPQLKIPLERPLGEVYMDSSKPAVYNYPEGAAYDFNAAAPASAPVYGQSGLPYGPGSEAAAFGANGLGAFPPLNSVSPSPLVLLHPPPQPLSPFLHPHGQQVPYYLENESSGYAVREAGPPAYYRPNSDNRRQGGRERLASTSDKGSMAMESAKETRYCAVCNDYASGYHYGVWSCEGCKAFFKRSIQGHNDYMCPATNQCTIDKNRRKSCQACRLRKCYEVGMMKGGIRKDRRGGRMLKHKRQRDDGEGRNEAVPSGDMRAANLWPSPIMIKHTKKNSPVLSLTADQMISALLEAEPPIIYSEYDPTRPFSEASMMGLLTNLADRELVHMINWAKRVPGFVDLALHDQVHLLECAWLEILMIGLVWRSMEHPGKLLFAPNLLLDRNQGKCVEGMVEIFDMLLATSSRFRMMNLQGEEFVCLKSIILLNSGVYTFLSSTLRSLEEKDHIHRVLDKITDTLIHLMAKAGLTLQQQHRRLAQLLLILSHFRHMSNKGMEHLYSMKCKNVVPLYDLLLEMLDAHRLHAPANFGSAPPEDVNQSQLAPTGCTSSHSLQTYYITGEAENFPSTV
UniProt P70606, whole entry, looked up: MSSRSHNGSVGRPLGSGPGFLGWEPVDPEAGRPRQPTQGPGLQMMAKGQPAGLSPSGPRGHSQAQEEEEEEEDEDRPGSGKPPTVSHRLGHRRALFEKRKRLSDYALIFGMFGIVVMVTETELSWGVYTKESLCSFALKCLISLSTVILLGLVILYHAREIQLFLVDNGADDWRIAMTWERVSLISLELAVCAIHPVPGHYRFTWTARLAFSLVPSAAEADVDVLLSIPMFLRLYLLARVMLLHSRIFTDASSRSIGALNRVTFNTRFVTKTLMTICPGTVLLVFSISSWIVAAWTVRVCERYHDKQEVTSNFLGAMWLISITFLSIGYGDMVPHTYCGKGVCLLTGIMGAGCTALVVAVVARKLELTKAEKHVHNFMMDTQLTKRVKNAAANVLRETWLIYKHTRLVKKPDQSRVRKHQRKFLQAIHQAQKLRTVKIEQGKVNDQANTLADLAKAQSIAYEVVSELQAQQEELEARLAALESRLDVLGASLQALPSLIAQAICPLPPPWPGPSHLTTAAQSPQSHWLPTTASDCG
UniProt P07727: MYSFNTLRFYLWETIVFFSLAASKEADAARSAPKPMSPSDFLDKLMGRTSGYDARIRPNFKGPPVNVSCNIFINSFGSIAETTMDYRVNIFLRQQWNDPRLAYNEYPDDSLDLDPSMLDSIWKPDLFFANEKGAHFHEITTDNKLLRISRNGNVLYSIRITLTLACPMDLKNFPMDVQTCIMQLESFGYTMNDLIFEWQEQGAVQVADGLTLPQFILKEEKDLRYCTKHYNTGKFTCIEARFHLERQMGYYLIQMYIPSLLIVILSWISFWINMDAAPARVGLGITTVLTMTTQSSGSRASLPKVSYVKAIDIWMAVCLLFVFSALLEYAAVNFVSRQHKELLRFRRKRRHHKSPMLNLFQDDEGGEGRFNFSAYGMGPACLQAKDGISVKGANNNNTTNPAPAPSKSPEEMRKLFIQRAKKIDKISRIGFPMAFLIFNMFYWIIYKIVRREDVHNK
UniProt P08219: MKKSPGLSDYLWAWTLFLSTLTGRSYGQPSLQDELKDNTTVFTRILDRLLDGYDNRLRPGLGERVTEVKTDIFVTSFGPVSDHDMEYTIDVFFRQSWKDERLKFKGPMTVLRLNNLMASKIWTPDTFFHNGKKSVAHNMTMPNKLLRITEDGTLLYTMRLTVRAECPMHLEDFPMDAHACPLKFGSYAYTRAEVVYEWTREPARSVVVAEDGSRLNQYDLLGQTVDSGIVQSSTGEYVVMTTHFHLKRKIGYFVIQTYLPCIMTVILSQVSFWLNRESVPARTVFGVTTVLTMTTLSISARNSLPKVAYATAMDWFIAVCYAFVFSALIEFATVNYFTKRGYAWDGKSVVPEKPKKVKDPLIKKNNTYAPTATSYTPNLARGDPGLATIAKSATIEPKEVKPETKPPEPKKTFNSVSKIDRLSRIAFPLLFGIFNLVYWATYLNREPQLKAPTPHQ

Columns and labels:
[1] = molecular target: rat Peripheral-type Benzodiazepine Receptor (PBR), Tspo (gene 24230) (UniProt P16257); test: NVS_MP_rPBR: NovaScreen (NVS) Membrane Protein Assay for rat Peripheral-type Benzodiazepine Receptor (PBR) (AID 2283335)
How it was run: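 Rat kidney membranes; radioligand binding with displacement, filter-based scintillation counting, 1 h incubation. Primary screen in duplicate at 25 uM, actives followed in concentration series; loss of binding vs DMSO.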

[2] = test system: guinea pig Histamine Receptor (H2), gene 100729734; test: NVS_GPCR_gH2: NovaScreen (NVS) G Protein-Coupled Receptor Assay for guinea pig Histamine Receptor (H2) (AID 2283342)
How it was run: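 Radioligand displacement on guinea pig striatal membranes, 1 h after dosing, filter-based scintillation counting; loss of signal versus DMSO. Single-point screen at 25 uM in duplicate, then concentration-response up to 50 uM.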

[3] = molecular target: Estrogen receptor (Homo sapiens) + Estrogen receptor beta (Homo sapiens) (UniProt P03372+Q92731); test: OT_ER_ERaERb_0480: Odyssey Thera (OT) 8-hour HEK293T Protein-Complementation Assay for Estrogen Receptor-alpha/-beta Heterodimer (AID 2283352)
How it was run: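 Human HEK293T cells were treated for 8 hours and receptor heterodimerisation was detected through reconstitution of a fluorescent reporter split between ER-alpha and ER-beta ligand-binding domains. Activity was analysed as gain of signal against DMSO.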

[4] = molecular target: human Constitutive Androstane Receptor (CAR), NR1I3 (gene 9970) (UniProt Q14994); test: NVS_NR_hCAR_Antagonist: NovaScreen (NVS) Nuclear Receptor Binding Assay for human Constitutive Androstane Receptor Antagonism (CAR) (AID 2283344)
How it was run: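 Cell-free TR-FRET binding read 1 h after dosing, antagonist mode; loss of signal versus DMSO baseline. Primary screen in duplicate at a single 25 uM; actives retested in concentration series.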

[5] = NVS_IC_rCaBTZCHL: NovaScreen (NVS) Ion Channel Assay for Calcium Channel, Type L, Benzothiazepine Site (CaBTZCHL) (AID 2283337)
How it was run: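 Scintillation counting of filter-bound radioligand gave the read-out, with reduced binding versus DMSO scored as activity. Membranes came from rat cortex and were read 1.5 h after compound addition. Chemicals were screened first in duplicate at 25 uM.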

NCBI gene 100848466 = test: NVS_NR_bPR: NovaScreen (NVS) Nuclear Receptor Binding Assay for bovine Progextron Receptor (PR) (AID 2283343);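 for AC50: actives lower bound radioligand signal below DMSO meaning displacement of the label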
How it was run: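 Bovine uterine membrane preparation, cell-free; radioligand competitive displacement measured by scintillation counting 18 hours after dosing. Loss of signal versus DMSO baseline indicates binding; primary HTS single concentration 25 uM in duplicate, actives followed in concentration series.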

[6] = molecular target: bovine Estrogen Receptor (ER), ESR1 (gene 407238) (UniProt P49884); test: NVS_NR_bER: NovaScreen (NVS) Nuclear Receptor Binding Assay for bovine Estrogen Receptor (ER) (AID 2283345);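 note: actives lower the bound radioligand count which means they displace the ER ligand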
How it was run: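 Scintillation counting of displaced radioligand gave the readout; bovine uterine membrane extract supplied the receptor. Measured 18 h post-dose, normalized to DMSO baseline. Single 25 uM duplicate screen preceded concentration-response follow-up.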

[7] = molecular target: Small conductance calcium-activated potassium channel protein 1 (Rattus norvegicus) (UniProt P70606); test: NVS_IC_rKCaCh: NovaScreen (NVS) Ion Channel Assay for rat Potassium Channel, Ca2+ Act., VI (KCaCh) (AID 2283336)
How it was run: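 Radioligand binding to rat forebrain membranes, cell-free, read 1 hour after dosing by filter-based scintillation counting. Compounds first run in duplicate at 25 uM, actives then in concentration series; loss of signal vs DMSO indicates displacement.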

[8] = molecular target: Estrogen receptor (Homo sapiens) (UniProt P03372); test: NVS_NR_hER: NovaScreen (NVS) Nuclear Receptor Binding Assay for human Estrogen Receptor (ER) (AID 2283348)
How it was run: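 Cell-free radioligand binding with protein extracted from MCF7 cells; scintillation counting 18 hours after dosing. Loss of signal versus DMSO baseline read as displacement; primary single-concentration screen at 25 uM in duplicate, actives retested in concentration series.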

[9] = molecular target: rat Glutamate, MK-801 Agonist Site (GluNMDA_MK801), Grin1 (gene 24408) (UniProt P35439); test: NVS_LGIC_rGluNMDA_MK801_Agonist: NovaScreen (NVS) Ligand-Gated Ion Channel Assay for rat Glutamate, MK-801 Agonist Site (GluNMDA_MK801) (AID 2283340)
How it was run: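 Radioligand binding at MK-801 site in rat forebrain membranes, 1.5 h incubation, filter-based scintillation counting. Initially 25 uM in duplicate; actives then run in concentration-response up to 50 uM, fitted for gain of signal versus DMSO.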

[10] = molecular target: rat Glycine Receptor, Strychnine-sensitive (GlyRStrySens), Glra1 (gene 25674) (UniProt P07727); test: NVS_LGIC_rGlyRStrySens: NovaScreen (NVS) Ligand-Gated Ion Channel Assay for rat Glycine Receptor, Strychnine-sensitive (GlyRStrySens) (AID 2283341)
How it was run: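 Radioligand displacement on rat spinal cord membranes, 1 hr, filter scintillation read-out. Single-concentration duplicate screen at 25 uM; chemicals meeting threshold (e.g., 30% inhibition) rerun in concentration-response up to 50 uM. Loss of binding fitted versus DMSO.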

[11] = molecular target: Estrogen receptor (Homo sapiens) (UniProt P03372); test: OT_ER_ERaERa_0480: Odyssey Thera (OT) 8-hour HEK293T Protein-Complementation Assay for Estrogen Receptor-alpha/-alpha Homodimer (AID 2283351);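 note: rise in fluorescence from reassembled reporter fragments on ERα LBD homodimer in nucleus or whole cell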
How it was run: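 HEK293T, stable ERα LBD (aa 310-547) PCA homodimer; 8 h compound exposure; fluorescence intensity, laser scanning cytometer; positive fitting direction, DMSO baseline.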

[12] = molecular target: bovine Gamma-Aminobutyric Acid Type A Receptor Agonist (GABAR Agonist), GABRA1 (gene 780973) (UniProt P08219); test: NVS_LGIC_bGABAR_Agonist: NovaScreen (NVS) Ligand-Gated Ion Channel Assay for bovine Gamma-Aminobutyric Acid Type A Receptor Agonist (GABAR Agonist) (AID 2283338)
How it was run: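 Radioligand binding to bovine cerebellar membranes in agonist format, read by filter-based scintillation counting after 1 h. Primary screen in duplicate at 25 uM, with actives followed in concentration series. Gain of signal versus DMSO.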

CCOCN(C(=O)CCl)c1c(C)cccc1CC
AC50 [1]: active: 1.45 µM
outcome [2]: inactive
AC50 [3]: inconclusive: 50 µM

CC(C)(C)C(=O)C(Oc1ccc(Cl)cc1)n1cncn1 (configuration not stated)
AC50 [1]: active: 2.37 µM
AC50 [4]: inconclusive: 0.0597 µM
outcome [3]: inactive

Nc1nc(N)nc(Cl)n1
outcome [5]: inactive

COC(=O)c1ccccc1C(=O)OC
AC50 [1]: inconclusive: 6.78 µM
outcome (NCBI gene 100848466): inactive
AC50 [6]: inconclusive: 25 µM

CSc1nnc(C(C)(C)C)c(=O)n1N
AC50 [1]: inconclusive: 1.5 µM
AC50 (NCBI gene 100848466): inconclusive: 2.54 µM
outcome [4]: inactive
AC50 [6]: inconclusive: 25 µM

CC(C)N(C(=O)CCl)c1ccccc1
AC50 [5]: inconclusive: 45.6 µM
AC50 [6]: inconclusive: 25 µM

O=S(=O)(C(Cl)(Cl)Cl)C(Cl)(Cl)Cl
outcome [5]: inactive

Cc1ccn2nc(S(=O)(=O)Nc3c(F)cccc3F)nc2n1
AC50 [7]: inconclusive: 25 µM

O=[N+]([O-])c1ccc(Cl)c(Cl)c1
AC50 [5]: inconclusive: 6.76 µM

C=C(Cl)Cl
AC50 [5]: inconclusive: 25 µM

O=C(O)CCCc1ccc(N(CCCl)CCCl)cc1
outcome [5]: inactive

CC(c1ccc(O)cc1)(c1ccc(O)cc1)c1ccc(O)cc1
AC50 [7]: inconclusive: 25 µM
AC50 [6]: active: 3.72 µM

O=C1c2ccccc2C(=O)N1SC(Cl)(Cl)Cl
outcome [1]: inactive
AC50 (NCBI gene 100848466): inconclusive: 0.0728 µM
outcome [6]: inactive
AC50 [8]: inconclusive: 25 µM

CC[C@H](C)[C@H]1O[C@]2(C=C[C@@H]1C)C[C@@H]1C[C@@H](C/C=C(\C)[C@@H](O[C@H]3C[C@H](OC)[C@@H](O[C@H]4C[C@H](OC)[C@@H](NC)[C@H](C)O4)[C@H](C)O3)[C@@H](C)/C=C/C=C3\CO[C@@H]4[C@H](O)C(C)=C[C@@H](C(=O)O1)[C@]34O)O2
AC50 [5]: active: 10 µM
AC50 (NCBI gene 100848466): inconclusive: 6.54 µM
AC50 [4]: active: 31 µM
AC50 [8]: inconclusive: 25 µM

O=[N+]([O-])C(Br)(CO)CO
AC50 [1]: inconclusive: 9.55 µM
AC50 [3]: inconclusive: 50 µM

Cc1ccc(N)cc1
AC50 [7]: inconclusive: 0.351 µM

CNC(=S)S
outcome [1]: inactive
outcome [9]: inactive

COc1cnc(OC)n2nc(NS(=O)(=O)c3c(OCC(F)F)cccc3C(F)(F)F)nc12
AC50 [5]: inconclusive: 25 µM
outcome [6]: inactive

CCC(C)(CC)c1cc(NC(=O)c2c(OC)cccc2OC)on1
outcome [1]: inactive
AC50 [10]: inconclusive: 0.172 µM

COP(N)(=O)SC (configuration not stated)
AC50 [1]: inconclusive: 25 µM
AC50 (NCBI gene 100848466): inconclusive: 25 µM
outcome [6]: inactive
AC50 [8]: inconclusive: 0.144 µM
AC50 [11]: inconclusive: 50 µM

Sc1ccccc1
AC50 [5]: inconclusive: 0.021 µM

CCNc1nc(Cl)nc(NCC)n1
outcome [1]: inactive
AC50 (NCBI gene 100848466): inconclusive: 0.0593 µM
outcome [6]: inactive
AC50 [8]: inconclusive: 25 µM

CC(C)(O)C(=O)Nc1ccc([N+](=O)[O-])c(C(F)(F)F)c1
outcome [1]: inactive
AC50 [6]: inconclusive: 4.84 µM
AC50 [3]: inconclusive: 38.5 µM

CCCN(CCOc1c(Cl)cc(Cl)cc1Cl)C(=O)n1ccnc1
AC50 [7]: inconclusive: 4.03 µM

CC(C)(c1ccccc1)c1ccc(O)cc1
AC50 [1]: inconclusive: 25 µM
AC50 [6]: active: 11.5 µM [middle of 4 runs]
AC50 [3]: active: 2.01 µM and active: 11.9 µM

c1ccc(Nc2ccc3ccccc3c2)cc1
outcome [5]: inactive

C[C@H]1[C@H](c2ccc(Cl)cc2)SC(=O)N1C(=O)NC1CCCCC1
AC50 [7]: inconclusive: 25 µM
AC50 [6]: inconclusive: 25 µM
AC50 [11]: inconclusive: 50 µM
outcome [3]: inactive

Nc1c(Cl)cc([N+](=O)[O-])cc1Cl
AC50 [1]: inconclusive: 0.0352 µM
AC50 (NCBI gene 100848466): inconclusive: 10.1 µM

Cc1cc2c3c(c1)C(c1ccccc1)=N[C@@H](NC(=O)c1ccncc1)C(=O)N3CC2
AC50 [7]: inconclusive: 0.145 µM
AC50 [2]: inconclusive: 6.66 µM
AC50 [11]: inconclusive: 50 µM

CO/N=C(/C(=O)OC)c1ccccc1COc1ccccc1C
AC50 [1]: active: 0.947 µM
outcome [6]: inactive

CN=C=S
AC50 [1]: inconclusive: 0.104 µM
AC50 (NCBI gene 100848466): inconclusive: 25 µM
AC50 [8]: inconclusive: 25 µM

CCCCNC(=O)OCC#CI
AC50 [1]: active: 12.8 µM and active: 10.7 µM
AC50 [12]: inconclusive: 25 µM
outcome (NCBI gene 100848466): inactive
AC50 [6]: inconclusive: 0.0651 µM
outcome [6]: inactive
AC50 [8]: inconclusive: 25 µM
AC50 [3]: inconclusive: 13.2 µM

Cc1cccc(N)c1
AC50 [12]: inconclusive: 0.08 µM

NS(=O)(=O)C(F)(F)C(F)(F)C(F)(F)C(F)(F)C(F)(F)C(F)(F)C(F)(F)C(F)(F)F
outcome [12]: inactive
AC50 [8]: inconclusive: 6.08 µM

CCN(CC)c1ccccc1
AC50 [12]: inconclusive: 0.248 µM
outcome [3]: inactive

Cc1ccccc1N
AC50 [2]: inconclusive: 5.2 µM

COC(=O)c1c(C(F)F)nc(C(F)(F)F)c(C2=NCCS2)c1CC(C)C
AC50 [10]: inconclusive: 6.55 µM
AC50 [3]: active: 17.2 µM

CCNc1nc(Cl)nc(NC(C)(C)C)n1
AC50 [12]: inconclusive: 25 µM
outcome [6]: inactive

N#CC(CCc1ccc(Cl)cc1)(Cn1cncn1)c1ccccc1 (configuration not stated)
outcome [2]: inactive
AC50 [4]: inconclusive: 25 µM
AC50 [3]: inconclusive: 19.9 µM
